Results as given in publication PMC7442798.
Results are given in words; binding and its absence hold for the method and conditions named. Binding seen in cells or lysates may run through a third protein. Some entries that bind do so weakly or less than the wild type. For some of these results: Where a sequence is shown, tags or fusion partners need not be part of it.

Sequences of proteins named here, by UniProt entry; tags and fusion partners are left off.
UniProt Q14258: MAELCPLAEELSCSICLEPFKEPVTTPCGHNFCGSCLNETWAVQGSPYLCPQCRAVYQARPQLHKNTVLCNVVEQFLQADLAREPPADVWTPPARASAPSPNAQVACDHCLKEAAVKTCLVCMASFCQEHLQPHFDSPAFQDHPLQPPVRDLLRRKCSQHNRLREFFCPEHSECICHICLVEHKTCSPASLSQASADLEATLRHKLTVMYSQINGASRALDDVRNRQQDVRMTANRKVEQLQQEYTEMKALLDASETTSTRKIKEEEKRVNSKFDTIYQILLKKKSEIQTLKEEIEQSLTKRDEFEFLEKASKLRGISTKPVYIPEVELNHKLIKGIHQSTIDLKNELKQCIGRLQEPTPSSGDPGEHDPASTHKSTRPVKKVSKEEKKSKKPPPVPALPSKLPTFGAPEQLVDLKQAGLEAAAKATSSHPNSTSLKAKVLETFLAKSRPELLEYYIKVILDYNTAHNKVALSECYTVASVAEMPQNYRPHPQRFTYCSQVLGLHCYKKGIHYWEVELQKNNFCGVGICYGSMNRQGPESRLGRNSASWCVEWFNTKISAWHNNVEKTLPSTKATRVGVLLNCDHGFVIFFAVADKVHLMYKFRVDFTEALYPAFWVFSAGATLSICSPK

T1: Flag-tagged wild-type OTUD5 (human) (UniProt Q96G74)
T1 sequence: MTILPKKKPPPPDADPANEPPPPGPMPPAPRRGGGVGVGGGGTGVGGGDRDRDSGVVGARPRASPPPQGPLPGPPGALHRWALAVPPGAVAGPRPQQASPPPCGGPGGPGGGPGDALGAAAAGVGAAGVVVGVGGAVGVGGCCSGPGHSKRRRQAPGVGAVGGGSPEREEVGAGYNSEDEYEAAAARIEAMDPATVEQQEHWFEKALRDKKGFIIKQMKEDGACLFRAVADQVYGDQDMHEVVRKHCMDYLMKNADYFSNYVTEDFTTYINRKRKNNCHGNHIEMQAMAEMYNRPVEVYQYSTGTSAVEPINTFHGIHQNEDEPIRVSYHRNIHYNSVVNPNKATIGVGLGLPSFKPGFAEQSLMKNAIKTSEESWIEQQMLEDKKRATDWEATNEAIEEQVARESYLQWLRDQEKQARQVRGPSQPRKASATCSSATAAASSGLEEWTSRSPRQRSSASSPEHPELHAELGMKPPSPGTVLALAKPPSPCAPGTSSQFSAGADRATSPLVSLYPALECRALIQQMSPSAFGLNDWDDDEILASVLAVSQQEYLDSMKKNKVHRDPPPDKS

T2: endogenous OTUD5 (human (endogenous in Hep3B)) (UniProt Q96G74)
T2 sequence: T1 sequence

B1: endogenous OTUD5 (enzyme, UniProt Q96G74 1-571)
chain: T1 sequence

Experiments:
[1] = target: T1, Flag-tagged wild-type OTUD5 (human); assay: co-IP; OTUD5 complex purified on anti-Flag M2 beads from the stable Flag-OTUD5/Hep3B cell line, analysed by western blotting
[2] = target: T1, Flag-tagged wild-type OTUD5 (human); assay: co-IP; Hep3B cells transfected with Flag-OTUD5-WT or Flag-OTUD5-ΔUIM; TRIM25 coprecipitated with the Flag-tagged protein
[3] = target: T2, endogenous OTUD5 (human (endogenous in Hep3B)); assay: co-IP; endogenous proteins; Hep3B cell lysates incubated with control IgG or specific antibody (anti-OTUD5 or anti-TRIM25) overnight at 4 °C, Protein A/G beads, western blotting
[4] = target: TRIM25 E3 ubiquitin ligase (human (endogenous in Hep3B)) (UniProt Q14258); assay: as above

Row | Molecule | binding [1] | binding [2] | binding [3] | binding [4]
1 | TRIM25 E3 ubiquitin ligase (from UniProt Q14258 1-630) | binds | binds | binds | –
2 | B1 | – | – | – | binds
